In the supplement of paper PMC12889115:
Some of the results follow. Values are raw readings; no control value is given beside them.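 Primary screen: polymyxin B was added at a level permeabilizing Salmonella outer membranes while sparing inner membranes. DMSO wells, both with and without polymyxin B, established maximum growth. Plate-to-plate variation meant each plate was ranked on its own, and the lowest-OD600 compounds were selected as hits.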

Tested on: Salmonella enterica serovar Typhimurium SL1344
Experiment: bacterial growth OD600 after 18 h with compound and polymyxin B; higher = more bacterial growth (less inhibition)
Details: 50 µM, Mueller-Hinton broth

Row | SMILES | bacterial growth OD600 (polymyxin B 1 µg/mL) | bacterial growth OD600 (polymyxin B 0.75 µg/mL)
1 | O=C(CCC1CCN(Cc2cc3ccccc3s2)CC1)NCc1cccnc1 | 0.883 | 
2 | COc1ccc(OCc2cc(C(=O)N3CCCC(O)C3)n[nH]2)c(Cl)c1 (stereo unspecified) |  | 0.884
3 | COc1ccc(CC2(CO)CCN(Cc3ccc(OC(C)C)cc3)CC2)cc1 | 0.99 | 
4 | CC(=O)C1(c2ccccc2)CCN(c2nncc(-c3ccccc3F)n2)CC1 | 0.698 | 
5 | COc1cc(CN2CCCC(C(=O)c3ccc(Cl)cc3)C2)cc(OC)c1OC (stereo unspecified) | 0.8 | 
6 | Cc1oc(-c2cccs2)nc1CN1CCC(N2CCC(C(=O)NC(C)C)CC2)CC1 | 1.01 | 
7 | CCn1nc(C)c(CN2CCOc3ccc(CN4CCC(OCc5ccccc5)CC4)cc3C2)c1C |  | 0.905
8 | O=C(Cn1ccnc1)N1CCCC(CCc2c(F)cccc2F)C1 (stereo unspecified) |  | 0.848
9 | COc1ccc(CCN2CC(C(=O)NC3c4ccccc4-c4ccccc43)CCC2=O)cc1 (stereo unspecified) | 0.724 | 
10 | CC(C)CN1CCC(C2CCN(C(=O)CCC3=NNC(=O)CC3)C2)CC1 (stereo unspecified) |  | 0.881
11 | CC(=O)c1[nH]c(C)c(C(=O)N2CCC(CCC(=O)NC3CC3)CC2)c1C | 0.865 | 
12 | COc1cc(OC)nc(N2C[C@H]3OC(=O)N(CCc4ccccn4)[C@H]3C2)n1 |  | 0.884
13 | COc1cccc(-c2cccc(NC(=O)C3CCN(Cc4ccc(CO)o4)CC3)c2)c1 | 0.88 | 
14 | COCCC(=O)NC1CC(=O)N(CCc2cccc(Cl)c2)C1 (stereo unspecified) | 0.908 | 
15 | O=C(CC(c1ccccc1)c1cccc(Cl)c1)NCCc1c[nH]cn1 (stereo unspecified) |  | 0.551
16 | Cc1nc(C)c(CN2CCC(C3CCN(c4ncccn4)CC3)C2)nc1C (stereo unspecified) |  | 0.869

Row | SMILES | bacterial growth OD600 (polymyxin B 1 µg/mL) | bacterial growth OD600 (polymyxin B 0.75 µg/mL)
17 | COCc1ccc(C(=O)Nc2ccc(-c3nc(CNC(=O)c4cccc5nccnc45)c(C)o3)cc2)o1 |  | 0.753
18 | CN(Cc1nc(-c2ccc3c(c2)OCO3)no1)C1CCCc2ccccc21 (stereo unspecified) | 0.467 | 
19 | CCN(Cc1nccn1C)C(=O)c1ccc(N2CCCC(O)C2)nc1 (stereo unspecified) |  | 0.83
20 | O=C1OCCN1CCNc1nncc(-c2cccc3ccccc23)n1 |  | 0.696
21 | O=C(C1CCC1)N1CCOc2c(cc(-c3cccnc3)cc2OCCc2cccs2)C1 |  | 0.795
22 | CC(=O)N1CCCN(C(=O)CC2(c3ccccc3)CC(=O)N(CCCOc3cccnc3)C2=O)CC1 (stereo unspecified) |  | 0.904
23 | O=C(CCCc1ccccc1)Nc1cccc(N2CCC(NCCN3CCOCC3)CC2)c1 |  | 0.757
24 | Cc1c[nH]c(CN(C)C(=O)c2cccc(OC3CCN(S(=O)(=O)N(C)C)CC3)c2)n1 | 1.03 | 
25 | CC(=O)Nc1cc(C(=O)N2CCN(Cc3ncccc3C)CC2)c2c(c1)nc(C)n2Cc1ccccc1 |  | 0.838
26 | CCOC(=O)C1(CCOc2ccccc2)CCCN(CC)C1 (stereo unspecified) | 1.08 | 
27 | CCOC(=O)C1(Cc2cccc(OC)c2)CCCN(Cc2cccc3nonc23)C1 (stereo unspecified) | 0.848 | 
28 | O=C(NCC1CCCN(C2CCOCC2)C1)c1ccc(-c2ccccc2)cc1 (stereo unspecified) | 0.922 | 
29 | COc1ccccc1Oc1ncccc1CNC(=O)c1cccnc1OC | 0.866 | 
30 | CCN1CCN(C2(C(=O)N(C)Cc3nc(C)c[nH]3)Cc3ccccc3C2)CC1 |  | 0.88
31 | O=C(NCc1ccccn1)c1cccc(OC2CCN(C(=O)c3ccoc3)CC2)c1 | 0.845 | 

Sorted by heavy-atom count (smallest number first): some entries from above
Row | SMILES | bacterial growth OD600 (polymyxin B 1 µg/mL) | bacterial growth OD600 (polymyxin B 0.75 µg/mL)
24 | Cc1c[nH]c(CN(C)C(=O)c2cccc(OC3CCN(S(=O)(=O)N(C)C)CC3)c2)n1 | 1.03 | 
21 | O=C(C1CCC1)N1CCOc2c(cc(-c3cccnc3)cc2OCCc2cccs2)C1 |  | 0.795
7 | CCn1nc(C)c(CN2CCOc3ccc(CN4CCC(OCc5ccccc5)CC4)cc3C2)c1C |  | 0.905
